# Some of the results follow.
# By UniProt entry, the sequences of proteins in these tests, tags left out. Where a name states a change or a piece, a line headed by the entry shows the natural chain unless it says otherwise.
# UniProt Q96EN8: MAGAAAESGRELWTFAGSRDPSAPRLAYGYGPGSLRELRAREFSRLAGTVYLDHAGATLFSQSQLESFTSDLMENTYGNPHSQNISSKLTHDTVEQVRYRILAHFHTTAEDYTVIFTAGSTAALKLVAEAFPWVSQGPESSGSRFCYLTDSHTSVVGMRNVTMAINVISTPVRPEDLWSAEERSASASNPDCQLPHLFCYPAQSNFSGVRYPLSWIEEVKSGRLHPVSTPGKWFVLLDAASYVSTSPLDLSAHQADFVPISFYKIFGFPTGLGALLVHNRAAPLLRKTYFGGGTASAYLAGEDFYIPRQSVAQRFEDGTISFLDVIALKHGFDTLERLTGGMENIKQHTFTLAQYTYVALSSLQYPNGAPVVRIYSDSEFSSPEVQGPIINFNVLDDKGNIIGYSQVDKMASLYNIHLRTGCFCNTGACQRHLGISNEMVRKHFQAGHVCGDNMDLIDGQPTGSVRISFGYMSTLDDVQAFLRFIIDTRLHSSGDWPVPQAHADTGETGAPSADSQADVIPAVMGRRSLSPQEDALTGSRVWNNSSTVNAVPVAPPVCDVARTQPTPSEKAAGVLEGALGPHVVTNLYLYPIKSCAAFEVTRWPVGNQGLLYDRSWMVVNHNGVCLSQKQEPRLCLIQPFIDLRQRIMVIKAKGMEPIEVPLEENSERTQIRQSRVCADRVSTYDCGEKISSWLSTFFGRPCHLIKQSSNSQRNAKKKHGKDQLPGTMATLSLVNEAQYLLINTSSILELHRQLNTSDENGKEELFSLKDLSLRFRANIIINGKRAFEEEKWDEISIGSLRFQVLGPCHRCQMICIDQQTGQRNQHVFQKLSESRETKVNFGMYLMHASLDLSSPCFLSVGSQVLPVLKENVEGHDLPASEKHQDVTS
# UniProt Q03111: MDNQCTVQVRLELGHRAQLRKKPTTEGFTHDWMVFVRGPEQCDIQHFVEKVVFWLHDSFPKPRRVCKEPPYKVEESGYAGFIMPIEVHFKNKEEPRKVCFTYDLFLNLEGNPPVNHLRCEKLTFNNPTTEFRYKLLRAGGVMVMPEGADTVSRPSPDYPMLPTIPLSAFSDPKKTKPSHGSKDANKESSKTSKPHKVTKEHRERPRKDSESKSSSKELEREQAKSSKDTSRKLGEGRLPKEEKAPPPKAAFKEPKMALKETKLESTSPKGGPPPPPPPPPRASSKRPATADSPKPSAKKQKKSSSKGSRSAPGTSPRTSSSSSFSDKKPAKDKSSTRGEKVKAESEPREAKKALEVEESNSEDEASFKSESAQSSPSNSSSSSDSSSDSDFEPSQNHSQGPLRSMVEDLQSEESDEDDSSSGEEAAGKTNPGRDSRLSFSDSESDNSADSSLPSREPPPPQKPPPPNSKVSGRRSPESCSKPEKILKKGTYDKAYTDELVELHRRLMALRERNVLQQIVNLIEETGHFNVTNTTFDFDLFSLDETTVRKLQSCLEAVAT
# UniProt Q95460, whole entry, looked up: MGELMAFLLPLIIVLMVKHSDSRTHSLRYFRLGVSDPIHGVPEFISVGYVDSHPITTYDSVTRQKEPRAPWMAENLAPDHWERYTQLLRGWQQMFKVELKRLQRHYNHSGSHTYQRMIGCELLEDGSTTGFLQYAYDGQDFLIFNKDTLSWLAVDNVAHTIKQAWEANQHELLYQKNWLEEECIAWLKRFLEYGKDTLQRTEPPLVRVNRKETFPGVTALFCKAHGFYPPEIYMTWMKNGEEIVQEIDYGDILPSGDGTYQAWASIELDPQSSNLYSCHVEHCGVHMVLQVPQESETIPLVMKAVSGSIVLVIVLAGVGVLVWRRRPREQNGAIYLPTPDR
# UniProt Q9UBU8, whole entry, looked up: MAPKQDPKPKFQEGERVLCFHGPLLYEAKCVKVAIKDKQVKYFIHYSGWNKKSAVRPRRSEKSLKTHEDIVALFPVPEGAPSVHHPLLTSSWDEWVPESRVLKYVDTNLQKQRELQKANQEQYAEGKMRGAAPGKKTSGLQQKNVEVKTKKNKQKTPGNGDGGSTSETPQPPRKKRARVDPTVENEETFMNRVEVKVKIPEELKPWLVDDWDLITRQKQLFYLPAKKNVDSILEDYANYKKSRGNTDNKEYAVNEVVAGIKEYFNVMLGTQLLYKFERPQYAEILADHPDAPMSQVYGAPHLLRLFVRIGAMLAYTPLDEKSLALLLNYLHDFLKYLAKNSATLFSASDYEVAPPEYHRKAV
# UniProt O14880: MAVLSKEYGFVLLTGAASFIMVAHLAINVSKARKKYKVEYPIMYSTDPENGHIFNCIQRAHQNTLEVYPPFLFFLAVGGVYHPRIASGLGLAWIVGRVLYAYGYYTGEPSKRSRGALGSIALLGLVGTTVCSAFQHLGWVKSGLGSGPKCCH
# UniProt Q5XKP0: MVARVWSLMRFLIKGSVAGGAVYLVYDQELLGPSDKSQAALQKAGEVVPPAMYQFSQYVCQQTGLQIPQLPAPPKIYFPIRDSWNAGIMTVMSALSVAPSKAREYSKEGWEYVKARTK
# UniProt O96007: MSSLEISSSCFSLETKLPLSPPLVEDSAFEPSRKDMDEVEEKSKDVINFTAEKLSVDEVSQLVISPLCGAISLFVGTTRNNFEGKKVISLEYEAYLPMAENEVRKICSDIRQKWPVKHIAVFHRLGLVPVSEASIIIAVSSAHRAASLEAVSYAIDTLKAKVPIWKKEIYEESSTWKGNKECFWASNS
# UniProt Q8N4C8: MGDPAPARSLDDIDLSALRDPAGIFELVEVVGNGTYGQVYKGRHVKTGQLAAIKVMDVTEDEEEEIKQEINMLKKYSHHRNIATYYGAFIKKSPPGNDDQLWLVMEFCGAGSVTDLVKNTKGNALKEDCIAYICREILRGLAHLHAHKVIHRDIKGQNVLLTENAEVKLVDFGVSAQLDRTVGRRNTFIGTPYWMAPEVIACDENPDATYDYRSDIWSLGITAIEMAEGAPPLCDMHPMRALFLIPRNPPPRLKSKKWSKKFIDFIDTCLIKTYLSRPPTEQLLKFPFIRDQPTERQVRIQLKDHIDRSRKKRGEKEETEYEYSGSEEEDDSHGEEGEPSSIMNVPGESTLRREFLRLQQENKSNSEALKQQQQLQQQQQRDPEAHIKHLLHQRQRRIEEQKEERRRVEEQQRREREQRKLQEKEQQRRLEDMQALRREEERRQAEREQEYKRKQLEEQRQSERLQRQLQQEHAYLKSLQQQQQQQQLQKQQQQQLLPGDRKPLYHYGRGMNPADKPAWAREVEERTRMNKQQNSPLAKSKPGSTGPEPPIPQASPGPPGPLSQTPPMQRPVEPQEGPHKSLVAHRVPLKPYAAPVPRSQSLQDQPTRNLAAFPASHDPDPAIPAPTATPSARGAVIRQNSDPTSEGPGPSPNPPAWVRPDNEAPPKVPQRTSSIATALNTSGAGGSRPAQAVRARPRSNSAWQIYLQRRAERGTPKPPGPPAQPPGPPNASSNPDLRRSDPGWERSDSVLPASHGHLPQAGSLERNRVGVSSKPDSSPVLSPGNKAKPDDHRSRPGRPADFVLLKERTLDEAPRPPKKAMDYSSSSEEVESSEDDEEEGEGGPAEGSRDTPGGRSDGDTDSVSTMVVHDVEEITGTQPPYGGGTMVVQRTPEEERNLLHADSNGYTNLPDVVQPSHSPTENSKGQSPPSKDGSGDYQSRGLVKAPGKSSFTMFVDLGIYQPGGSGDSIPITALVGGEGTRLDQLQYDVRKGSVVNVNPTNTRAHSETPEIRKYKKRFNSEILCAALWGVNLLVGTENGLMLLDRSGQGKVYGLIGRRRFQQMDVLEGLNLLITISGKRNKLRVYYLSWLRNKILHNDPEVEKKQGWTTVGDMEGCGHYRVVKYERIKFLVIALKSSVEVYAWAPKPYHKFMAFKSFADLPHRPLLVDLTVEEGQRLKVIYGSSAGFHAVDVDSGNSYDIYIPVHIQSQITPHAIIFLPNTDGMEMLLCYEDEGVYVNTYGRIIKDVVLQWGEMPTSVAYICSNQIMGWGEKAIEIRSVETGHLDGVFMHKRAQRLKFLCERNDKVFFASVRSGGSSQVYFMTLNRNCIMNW
# UniProt Q9H3L0: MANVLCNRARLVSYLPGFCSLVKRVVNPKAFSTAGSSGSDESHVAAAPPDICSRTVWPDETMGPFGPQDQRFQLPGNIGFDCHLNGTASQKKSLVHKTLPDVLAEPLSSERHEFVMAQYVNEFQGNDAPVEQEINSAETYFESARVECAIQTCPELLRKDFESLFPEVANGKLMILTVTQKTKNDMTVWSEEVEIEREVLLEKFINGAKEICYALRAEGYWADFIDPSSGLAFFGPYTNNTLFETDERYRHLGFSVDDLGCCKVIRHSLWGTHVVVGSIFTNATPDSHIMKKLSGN
# UniProt Q9UNW1: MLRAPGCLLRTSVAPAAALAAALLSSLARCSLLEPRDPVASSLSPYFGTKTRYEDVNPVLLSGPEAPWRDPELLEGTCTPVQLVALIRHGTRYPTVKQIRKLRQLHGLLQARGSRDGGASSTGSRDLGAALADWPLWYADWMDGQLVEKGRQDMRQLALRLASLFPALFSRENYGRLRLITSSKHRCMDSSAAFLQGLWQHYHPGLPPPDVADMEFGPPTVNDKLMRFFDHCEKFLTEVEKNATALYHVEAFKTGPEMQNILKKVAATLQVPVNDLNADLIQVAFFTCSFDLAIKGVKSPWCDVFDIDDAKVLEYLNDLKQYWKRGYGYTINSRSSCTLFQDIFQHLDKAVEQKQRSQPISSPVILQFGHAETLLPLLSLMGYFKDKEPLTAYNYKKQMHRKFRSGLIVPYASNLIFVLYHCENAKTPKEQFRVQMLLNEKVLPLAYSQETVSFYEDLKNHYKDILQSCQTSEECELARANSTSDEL
# UniProt Q7L9L4: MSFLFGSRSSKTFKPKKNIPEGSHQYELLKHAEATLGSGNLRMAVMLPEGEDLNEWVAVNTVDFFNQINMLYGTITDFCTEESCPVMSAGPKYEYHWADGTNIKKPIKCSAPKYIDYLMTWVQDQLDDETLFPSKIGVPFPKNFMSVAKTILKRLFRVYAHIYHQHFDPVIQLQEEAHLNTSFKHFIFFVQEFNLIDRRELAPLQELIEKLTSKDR
# UniProt Q8IY33: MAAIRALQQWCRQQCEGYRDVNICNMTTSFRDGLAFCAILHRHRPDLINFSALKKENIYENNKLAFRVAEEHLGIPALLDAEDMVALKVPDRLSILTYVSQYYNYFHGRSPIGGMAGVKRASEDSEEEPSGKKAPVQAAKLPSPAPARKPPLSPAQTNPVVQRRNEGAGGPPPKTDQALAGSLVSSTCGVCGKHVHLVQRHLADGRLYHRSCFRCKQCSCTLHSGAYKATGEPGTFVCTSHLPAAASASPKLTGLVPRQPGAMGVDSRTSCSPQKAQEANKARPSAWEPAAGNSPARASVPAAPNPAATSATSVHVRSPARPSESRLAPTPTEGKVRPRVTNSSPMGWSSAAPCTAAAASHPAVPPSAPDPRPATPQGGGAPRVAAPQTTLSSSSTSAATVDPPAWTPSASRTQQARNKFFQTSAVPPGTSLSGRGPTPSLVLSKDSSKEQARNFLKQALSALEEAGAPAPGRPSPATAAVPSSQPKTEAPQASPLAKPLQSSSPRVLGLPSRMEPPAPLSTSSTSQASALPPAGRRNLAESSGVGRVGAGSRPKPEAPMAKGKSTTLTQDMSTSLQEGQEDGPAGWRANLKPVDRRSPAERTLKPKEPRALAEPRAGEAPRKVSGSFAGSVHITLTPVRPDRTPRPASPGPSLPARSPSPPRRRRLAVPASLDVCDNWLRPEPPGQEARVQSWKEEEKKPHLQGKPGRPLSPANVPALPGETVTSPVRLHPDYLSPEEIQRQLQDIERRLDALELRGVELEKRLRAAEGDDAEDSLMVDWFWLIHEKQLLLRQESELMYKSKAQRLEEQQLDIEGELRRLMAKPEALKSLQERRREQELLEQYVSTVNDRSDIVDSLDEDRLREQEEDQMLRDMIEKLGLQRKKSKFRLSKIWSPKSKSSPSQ
# UniProt Q9NV56, whole entry, looked up: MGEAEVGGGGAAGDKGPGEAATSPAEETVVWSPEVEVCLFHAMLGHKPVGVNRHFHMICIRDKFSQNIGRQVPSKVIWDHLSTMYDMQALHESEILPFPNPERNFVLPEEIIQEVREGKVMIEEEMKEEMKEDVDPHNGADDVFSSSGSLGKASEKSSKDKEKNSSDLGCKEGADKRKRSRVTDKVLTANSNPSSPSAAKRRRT
# UniProt Q9UQ53: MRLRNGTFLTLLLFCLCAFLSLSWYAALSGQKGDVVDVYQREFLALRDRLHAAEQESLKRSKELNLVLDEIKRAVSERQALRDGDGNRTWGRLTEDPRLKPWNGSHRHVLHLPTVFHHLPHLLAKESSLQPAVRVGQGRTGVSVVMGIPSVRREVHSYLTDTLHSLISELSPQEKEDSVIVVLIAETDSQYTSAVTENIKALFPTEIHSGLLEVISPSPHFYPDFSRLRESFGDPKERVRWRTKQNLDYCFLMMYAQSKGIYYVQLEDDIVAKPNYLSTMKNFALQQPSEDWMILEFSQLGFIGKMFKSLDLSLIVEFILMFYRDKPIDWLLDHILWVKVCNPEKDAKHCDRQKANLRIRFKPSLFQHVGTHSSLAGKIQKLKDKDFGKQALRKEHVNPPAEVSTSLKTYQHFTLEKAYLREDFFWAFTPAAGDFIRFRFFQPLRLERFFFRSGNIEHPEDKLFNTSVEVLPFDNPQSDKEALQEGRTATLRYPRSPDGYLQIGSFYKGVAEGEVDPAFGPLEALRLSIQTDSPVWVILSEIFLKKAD
# Compound: CC1=C(SC2=C1C(=N[C@H](C3=NN=C(N32)C)CC(=O)N)C4=CC=C(C=C4)Cl)C
# Experiment: log2 fold change, soluble protein after heating vs DMSO (PISA); higher = thermal stabilisation; K562 lysate, 10 uM; active = over 0.2 and 3.5 SD of the protein, either way, in both replicates (recomputed)
# Procedure, shortened: (§1)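 A 30 min treatment with 10 μM compound was applied to crude K562 extract at 1 mg/mL protein in PBS pH 7.4 with 1 mM MgCl2. Heating for 3 min spanned 48°C-58°C, after which aliquots were pooled, adjusted to 0.5% NP-40 at 4°C and spun at 21,000xg for 90 min. TMTpro 16plex LC-MS/MS of the supernatant, with channel sums equalised, gave values recorded as log-two fold change in thermal stability against solvent controls, from duplicates.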
row,Target,log2 fold change
1,MINDY1 isoform 3 (UniProt Q8N5J2),inactive: 0.061
2,MOCOS (UniProt Q96EN8),inactive: 0.02
3,MORC3 (UniProt Q14149),inactive: 0
4,MLLT1 (UniProt Q03111),inactive: 0.046
5,MIEF1 (UniProt L0R8F8),inactive: -0.043
6,MR1 (UniProt Q95460),inactive: 0.039
7,MORF4L1 isoform 2 (UniProt Q9UBU8),inactive: -0.03
8,MIA2 (UniProt Q96PC5),inactive: -0.037
9,MON1A (UniProt Q86VX9),inactive: 0.018
10,MRI1 (UniProt Q9BV20),inactive: 0.017
11,MKNK1 (UniProt Q9BUB5),inactive: 0.019
12,MND1 (UniProt Q9BWT6),inactive: -0.013
13,MPG (UniProt P29372),inactive: -0.001
14,MGST3 (UniProt O14880),inactive: -0.033
15,MICOS13 (UniProt Q5XKP0),inactive: 0.055
16,MRPL15 (UniProt Q9P015),inactive: 0.04
17,MOCS2 (UniProt O96007),inactive: 0.021
18,MRPL14 (UniProt Q6P1L8),inactive: -0.112
19,MINK1 (UniProt Q8N4C8),inactive: 0.092

row,Target,log2 fold change
1,MIER2 (UniProt Q8N344),inactive: -0.288
2,MMADHC (UniProt Q9H3L0),inactive: -0.034
3,MIA3 (UniProt Q5JRA6),inactive: -0.023
4,MINPP1 (UniProt Q9UNW1),inactive: 0.014
5,MOB1B isoform 2 (UniProt Q7L9L4),inactive: -0.036
6,MIER3 isoform 2 (UniProt Q7Z3K6),inactive: 0.295
7,MIIP (UniProt Q5JXC2),inactive: -0.012
8,MKRN1 (UniProt Q9UHC7),inactive: -0.004
9,MPRIP isoform 2 (UniProt Q6WCQ1),inactive: 0.034
10,MRPL12 (UniProt P52815),inactive: 0.015
11,MPP5 (UniProt Q8N3R9),inactive: 0.045
12,MOSPD2 (UniProt Q8NHP6),inactive: 0.029
13,MOB2 isoform 3 (UniProt Q70IA6),inactive: -0.116
14,MIS12 (UniProt Q9H081),inactive: -0.014
15,MICALL2 (UniProt Q8IY33),inactive: 0.026
16,MRGBP (UniProt Q9NV56),inactive: -0.086
17,MIER1 isoform 12 (UniProt Q8N108),inactive: 0.001
18,MRPL16 (UniProt Q9NX20),inactive: -0.109
19,MGAT4B isoform 3 (UniProt Q9UQ53),inactive: 0.041

# Compound: CC1=C2C(=CC=C1)N=C(N(C2=O)C3=CC=CC=C3C)CN4C=NC5=C(N=CN=C54)N
# Experiment: as above
# Procedure, shortened: as §1
row,Target,log2 fold change
1,MINDY1 isoform 3 (UniProt Q8N5J2),inactive: -0.003
2,MOCOS (UniProt Q96EN8),inactive: 0.046
3,MORC3 (UniProt Q14149),inactive: 0.003
4,MLLT1 (UniProt Q03111),inactive: -0.15
5,MIEF1 (UniProt L0R8F8),inactive: 0.005
6,MR1 (UniProt Q95460),inactive: -0.081
7,MORF4L1 isoform 2 (UniProt Q9UBU8),inactive: -0.029
8,MIA2 (UniProt Q96PC5),inactive: -0.013
9,MON1A (UniProt Q86VX9),inactive: -0.063
10,MRI1 (UniProt Q9BV20),inactive: 0
11,MKNK1 (UniProt Q9BUB5),inactive: -0.042
12,MND1 (UniProt Q9BWT6),inactive: -0.009
13,MPG (UniProt P29372),inactive: 0.047
14,MGST3 (UniProt O14880),inactive: -0.008
15,MICOS13 (UniProt Q5XKP0),inactive: 0.052
16,MRPL15 (UniProt Q9P015),inactive: 0.003
17,MOCS2 (UniProt O96007),inactive: -0.001
18,MRPL14 (UniProt Q6P1L8),inactive: 0.068
19,MINK1 (UniProt Q8N4C8),inactive: -0.149

row,Target,log2 fold change
1,MIER2 (UniProt Q8N344),inactive: 0.077
2,MMADHC (UniProt Q9H3L0),inactive: 0.025
3,MIA3 (UniProt Q5JRA6),inactive: 0.053
4,MINPP1 (UniProt Q9UNW1),inactive: 0.046
5,MOB1B isoform 2 (UniProt Q7L9L4),inactive: 0.005
6,MIER3 isoform 2 (UniProt Q7Z3K6),inactive: 0.019
7,MKRN1 (UniProt Q9UHC7),inactive: 0.01
8,MPRIP isoform 2 (UniProt Q6WCQ1),inactive: 0.054
9,MRPL12 (UniProt P52815),inactive: -0.022
10,MPP5 (UniProt Q8N3R9),inactive: -0.006
11,MOSPD2 (UniProt Q8NHP6),inactive: 0.047
12,MOB2 isoform 3 (UniProt Q70IA6),inactive: 0.127
13,MIS12 (UniProt Q9H081),inactive: 0.043
14,MICALL2 (UniProt Q8IY33),inactive: 0.03
15,MRGBP (UniProt Q9NV56),inactive: -0.076
16,MIER1 isoform 12 (UniProt Q8N108),inactive: -0.001
17,MRPL16 (UniProt Q9NX20),inactive: 0.008
18,MGAT4B isoform 3 (UniProt Q9UQ53),inactive: -0.135
